{"source": "patent US20150253323A1", "about": "“METHODS AND KITS FOR HIGH THROUGHPUT SCREENING FOR COMPOUNDS TARGETING DNA-BINDING AND RNA-BINDING PROTEINS” (The Florida International University Board of Trustees, priority 2014, published 2015)", "system": "HMGA2-FL814 interaction", "assay": "PDI-ELISA for HMGA2 binding to DNA oligomer FL814", "parameters": "species or system mammalian", "details": "100 nM compound, 100 nM FL814, 1 μM HMGA2, 2×SSCT; OD450 without drug 1.44", "note": "At least one compound was matched to its structure with a doubt left.", "data": [{"compound": "CC[n+]1c(-c2ccccc2)c2cc(N)ccc2c2ccc(N)cc21", "note": "[Ethidium bromide, ethidium bromide]", "values": [{"measurement": "OD450 of the PDI-ELISA in the presence of the compound", "result": 1.592}]}]}
